No constants are given. Whether binding was seen depends on the method and setting. Some entries that bind do so weakly or less than the wild type.
Legend:
[1] = target: Rep68 (adeno-associated virus 2), non-tagged (adeno-associated virus 2 (AAV2)) (UniProt P03132); assay: SAXS; purified Rep68-RBS dsDNA complex; radius of gyration; both purified
[2] = target: Rep68 (adeno-associated virus 2), non-tagged (adeno-associated virus 2 (AAV2)) (UniProt P03132); assay: SEC; Superose 6 10/300 GL, buffer A; Rep68 16.6 µM incubated with 2.8 µM RBS dsDNA 30 min on ice; both purified
[3] = target: Rep68 (adeno-associated virus 2), non-tagged (adeno-associated virus 2 (AAV2)) (UniProt P03132); assay: SEC; preliminary gel filtration of the Rep68-ATP complex, no DNA; data not shown; both purified
[4] = target: Rep68 (adeno-associated virus 2), non-tagged (adeno-associated virus 2 (AAV2)) (UniProt P03132); assay: AUC; sedimentation velocity; Rep68 1 mg/ml with 2.8 µM ssDNA (polydT25), buffer A, 45,000 rpm, 20°C; both purified
[5] = target: Rep68 (adeno-associated virus 2), non-tagged (adeno-associated virus 2 (AAV2)) (UniProt P03132); assay: SEC; Superose 6, buffer A; Rep68 16.6 µM incubated with 2.8 µM ssDNA-dsDNA heteroduplex (25-nt 3' poly-dT tail), unlabelled or Cy5-labelled (2.8 or 2.1 µM); both purified
[6] = target: Rep68 (adeno-associated virus 2), non-tagged (adeno-associated virus 2 (AAV2)) (UniProt P03132); assay: SAXS; purified Rep68-ssDNA complex; radius of gyration; both purified
[7] = target: Rep68 (adeno-associated virus 2), non-tagged (adeno-associated virus 2 (AAV2)) (UniProt P03132); assay: SEC; Superose 6 10/300 GL, buffer A (25 mM Tris-HCl pH 8.0, 200 mM NaCl, 5% glycerol, 1 mM TCEP); Rep protein 16.6 µM incubated with 2.8 µM ssDNA (polydT25) 30 min on ice; also with 1 mM ATP, ATP/CaCl2 or ATP/MgCl2 added (same complex); both purified

The chains behind the UniProt entries cited, without tags or fusion partners.
UniProt P03132: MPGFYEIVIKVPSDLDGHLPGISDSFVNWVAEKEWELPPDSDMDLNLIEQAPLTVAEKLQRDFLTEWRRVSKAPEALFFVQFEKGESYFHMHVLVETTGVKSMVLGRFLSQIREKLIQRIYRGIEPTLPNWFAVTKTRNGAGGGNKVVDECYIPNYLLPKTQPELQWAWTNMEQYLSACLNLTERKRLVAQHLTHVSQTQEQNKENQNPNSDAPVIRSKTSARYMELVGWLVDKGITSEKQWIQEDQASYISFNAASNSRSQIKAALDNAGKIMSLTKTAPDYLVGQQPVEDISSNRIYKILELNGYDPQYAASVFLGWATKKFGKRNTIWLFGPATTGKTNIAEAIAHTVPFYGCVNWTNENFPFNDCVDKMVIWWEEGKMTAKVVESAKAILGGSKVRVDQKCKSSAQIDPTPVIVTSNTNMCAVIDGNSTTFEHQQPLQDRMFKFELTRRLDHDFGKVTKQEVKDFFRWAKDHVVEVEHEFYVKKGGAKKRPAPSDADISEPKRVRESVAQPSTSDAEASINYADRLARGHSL

Measured: binding

Rep68 (adeno-associated virus 2), non-tagged (from UniProt P03132 1-536)
binds: all assays above
